Test results taken from paper PMC12040169 (PLOS Biology, 2025).
This is one part of the list.

tested on: T1, CTL2-GFP (C. trachomatis L2/434/Bu, GFP-expressing); design: species or system HeLa; Intracellular C. trachomatis growth in HeLa cells, bulk GFP fluorescence relative to DMSO; conditions: bulk GFP, single well; 28.5 h, 10 µM; inhibitor
T1 construct: L2/434/Bu, GFP-expressing

Structure (SMILES)	% of control remaining [%]
O=C(Nn1cnnc1)c1ccccc1CCc1ccccc1 [CBK268578]	130.561
COC(=O)c1c(C)c(C(C)=O)n(C)c1C [CBK012459]	103.56
Cc1nc(C(=O)N(C)C(C)c2cc3ccccc3o2)nn1-c1ccc(F)cc1 (stereo not shown) [CBK296657]	109.067
Cn1ncc2c1CCCN(C(=O)Cc1ccc3c(c1)CCCO3)C2 [CBK282253]	121.447
CNC(=O)c1ccc(-c2ccc(CNC(=O)CCc3cccc(Cl)c3)cc2)nc1C [CBK286015]	121.347
COc1ccc(OC)c(NC(=S)NCCN2CCOCC2)c1 [CBK264927]	117.489
Nc1ccc(C(=O)Oc2ccc(Oc3ccccc3)cc2)cc1 [CBK083570]	125.906
O=C(NC(Cc1ccccc1)C(=O)O)c1ccc(Cl)cc1 (stereo not shown) [CBK264677]	122.258
Cc1cccc2sc(NC(=O)C3COc4ccccc4O3)nc12 (stereo not shown) [CBK287367]	69.4898
CS(=O)(=O)N/N=C/c1ccc(Cl)cc1Cl [CBK026420]	118.393
CCC(=O)Nc1ccc(-c2csc(N3CCC(C)CC3)n2)cc1 [CBK306490]	115.547
CC1=NN(c2ccc(S(=O)(=O)O)cc2)C(=O)/C1=C/C=C/c1c(C)nn(-c2ccc(S(=O)(=O)O)cc2)c1O [CBK278317K]	100.603
COc1ccc(CNC(N)=O)cc1 [CBK013588]	141.236
O=C1N[C@H]2CCCN(C(=O)c3cncs3)[C@H]2CCCCCOc2ccccc21 [CBK292106]	101.798
Cc1ccc(S(=O)(=O)N2CCC3(CC2)OCCO3)cc1Cl [CBK043731]	98.4698
CC(C)NC(=O)[C@H]1O[C@H](CCN2CCN(c3ccc(F)cc3)CC2)CC[C@@H]1O [CBK288721]	115.173
CC(=O)c1ccc(-n2ncc(-c3ccc(F)cc3)n2)cc1 [CBK112889]	100
OC(CNC1CCN(Cc2ccccc2)CC1)COc1ccc2c(c1)OCO2 (stereo not shown) [CBK074645]	109.281
O=c1oc(-c2ccoc2)nn1Cc1ccccc1F [CBK283726]	139.475
OC(CNCCc1ccccc1)COc1c(Br)cccc1Br (stereo not shown) [CBK003071]	100.606
COc1ccc([C@]23CN(C)C[C@H]2CCN(C(=O)Nc2cccc(Cl)c2)C3)cc1OC [CBK075104T]	111.571
CCCC1(C)CCCN(Cc2nnnn2-c2ccc(S(C)(=O)=O)cc2)C1 (stereo not shown) [CBK304133]	125.797

Quoted at random: 2 compounds from above, in no set order.
Structure (SMILES)	% of control remaining [%]
CCC(=O)Nc1ccc(-c2csc(N3CCC(C)CC3)n2)cc1 [CBK306490]	115.547
Cn1ncc2c1CCCN(C(=O)Cc1ccc3c(c1)CCCO3)C2 [CBK282253]	121.447
